Measured values from the supplement of paper PMC10849652.
The other results are listed elsewhere or left out.

The chains behind the UniProt entries cited, without tags or fusion partners. Where a name states a change or a piece, a line headed by the entry shows the natural chain unless it says otherwise.
UniProt P19367: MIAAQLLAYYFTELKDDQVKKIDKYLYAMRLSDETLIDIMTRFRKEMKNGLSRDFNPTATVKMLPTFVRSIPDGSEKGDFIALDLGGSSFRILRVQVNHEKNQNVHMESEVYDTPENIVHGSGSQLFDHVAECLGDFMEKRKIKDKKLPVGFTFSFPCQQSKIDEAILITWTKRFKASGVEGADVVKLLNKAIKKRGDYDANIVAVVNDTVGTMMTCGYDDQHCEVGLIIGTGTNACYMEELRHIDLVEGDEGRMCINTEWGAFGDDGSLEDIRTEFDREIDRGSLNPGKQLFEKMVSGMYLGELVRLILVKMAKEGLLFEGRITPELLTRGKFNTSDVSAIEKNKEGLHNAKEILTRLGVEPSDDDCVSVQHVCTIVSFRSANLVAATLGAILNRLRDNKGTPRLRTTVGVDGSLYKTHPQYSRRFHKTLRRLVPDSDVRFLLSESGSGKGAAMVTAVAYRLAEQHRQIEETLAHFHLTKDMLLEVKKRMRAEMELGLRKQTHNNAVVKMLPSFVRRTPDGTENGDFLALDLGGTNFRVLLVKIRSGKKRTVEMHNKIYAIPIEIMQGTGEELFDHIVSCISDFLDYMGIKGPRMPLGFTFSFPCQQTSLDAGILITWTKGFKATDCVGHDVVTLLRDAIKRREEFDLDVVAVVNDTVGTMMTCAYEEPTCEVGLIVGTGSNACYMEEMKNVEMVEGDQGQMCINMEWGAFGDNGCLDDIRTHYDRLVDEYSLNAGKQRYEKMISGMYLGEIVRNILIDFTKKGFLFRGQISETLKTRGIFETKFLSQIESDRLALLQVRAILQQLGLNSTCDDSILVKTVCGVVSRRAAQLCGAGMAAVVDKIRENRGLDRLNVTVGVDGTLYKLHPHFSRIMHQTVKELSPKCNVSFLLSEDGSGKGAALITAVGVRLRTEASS
UniProt P14866: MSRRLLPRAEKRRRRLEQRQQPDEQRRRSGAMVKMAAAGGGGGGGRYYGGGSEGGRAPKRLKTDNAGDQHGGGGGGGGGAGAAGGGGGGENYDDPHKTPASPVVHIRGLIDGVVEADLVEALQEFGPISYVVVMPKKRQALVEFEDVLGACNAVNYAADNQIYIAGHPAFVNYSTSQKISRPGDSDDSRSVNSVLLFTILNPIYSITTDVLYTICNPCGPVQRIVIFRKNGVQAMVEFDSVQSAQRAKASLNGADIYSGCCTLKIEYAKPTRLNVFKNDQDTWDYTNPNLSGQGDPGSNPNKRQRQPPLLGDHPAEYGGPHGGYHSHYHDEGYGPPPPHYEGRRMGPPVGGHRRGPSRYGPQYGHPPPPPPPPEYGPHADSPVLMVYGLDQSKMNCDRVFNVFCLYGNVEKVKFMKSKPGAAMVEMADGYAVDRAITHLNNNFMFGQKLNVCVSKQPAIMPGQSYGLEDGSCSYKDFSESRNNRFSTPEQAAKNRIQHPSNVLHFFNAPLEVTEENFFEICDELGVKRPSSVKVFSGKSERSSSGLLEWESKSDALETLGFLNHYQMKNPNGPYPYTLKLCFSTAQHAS
UniProt Q13151: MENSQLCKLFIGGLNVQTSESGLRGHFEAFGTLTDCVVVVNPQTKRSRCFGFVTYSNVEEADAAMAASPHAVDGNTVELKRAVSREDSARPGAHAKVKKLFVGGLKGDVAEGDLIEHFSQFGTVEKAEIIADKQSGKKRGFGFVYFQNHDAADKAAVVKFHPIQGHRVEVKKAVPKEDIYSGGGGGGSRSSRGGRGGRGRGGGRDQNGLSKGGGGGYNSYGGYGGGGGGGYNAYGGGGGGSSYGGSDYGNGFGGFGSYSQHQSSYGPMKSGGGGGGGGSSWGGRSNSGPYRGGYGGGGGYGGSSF
UniProt P04035: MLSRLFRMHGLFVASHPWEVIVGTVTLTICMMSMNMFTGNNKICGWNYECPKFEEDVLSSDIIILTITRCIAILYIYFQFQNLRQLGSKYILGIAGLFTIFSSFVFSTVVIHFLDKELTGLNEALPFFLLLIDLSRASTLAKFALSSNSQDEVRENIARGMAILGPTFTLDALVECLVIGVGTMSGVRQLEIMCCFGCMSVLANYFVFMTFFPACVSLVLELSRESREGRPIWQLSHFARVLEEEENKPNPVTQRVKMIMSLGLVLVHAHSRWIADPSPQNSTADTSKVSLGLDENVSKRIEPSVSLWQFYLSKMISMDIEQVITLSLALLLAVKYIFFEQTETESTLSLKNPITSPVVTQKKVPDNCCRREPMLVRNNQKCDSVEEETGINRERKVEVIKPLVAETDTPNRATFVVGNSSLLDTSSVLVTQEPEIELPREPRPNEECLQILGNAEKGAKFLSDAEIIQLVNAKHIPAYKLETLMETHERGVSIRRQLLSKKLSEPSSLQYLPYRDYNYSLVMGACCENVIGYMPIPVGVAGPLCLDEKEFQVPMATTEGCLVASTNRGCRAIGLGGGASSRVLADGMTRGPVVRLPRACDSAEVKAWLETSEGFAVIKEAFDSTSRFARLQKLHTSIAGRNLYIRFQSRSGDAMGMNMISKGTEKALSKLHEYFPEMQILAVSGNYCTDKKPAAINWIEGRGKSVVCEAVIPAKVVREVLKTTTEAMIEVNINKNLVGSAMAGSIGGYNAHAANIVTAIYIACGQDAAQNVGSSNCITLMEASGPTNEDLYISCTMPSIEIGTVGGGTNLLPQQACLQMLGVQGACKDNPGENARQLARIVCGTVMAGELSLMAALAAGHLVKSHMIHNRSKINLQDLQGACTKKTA
UniProt Q00613: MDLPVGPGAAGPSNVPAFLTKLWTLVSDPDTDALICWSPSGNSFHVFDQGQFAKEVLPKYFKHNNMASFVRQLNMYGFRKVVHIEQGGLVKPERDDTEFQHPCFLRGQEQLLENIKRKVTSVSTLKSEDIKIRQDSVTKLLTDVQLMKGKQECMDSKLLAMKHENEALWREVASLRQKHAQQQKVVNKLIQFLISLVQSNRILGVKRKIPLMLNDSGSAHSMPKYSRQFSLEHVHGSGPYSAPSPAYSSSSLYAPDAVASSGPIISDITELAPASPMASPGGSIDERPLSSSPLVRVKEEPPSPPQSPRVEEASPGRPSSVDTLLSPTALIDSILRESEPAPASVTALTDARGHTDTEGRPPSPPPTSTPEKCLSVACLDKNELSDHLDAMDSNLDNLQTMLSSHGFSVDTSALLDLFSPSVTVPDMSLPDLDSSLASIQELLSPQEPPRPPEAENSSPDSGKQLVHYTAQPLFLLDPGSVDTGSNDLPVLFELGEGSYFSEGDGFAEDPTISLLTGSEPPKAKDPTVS
UniProt O60725, whole entry, looked up: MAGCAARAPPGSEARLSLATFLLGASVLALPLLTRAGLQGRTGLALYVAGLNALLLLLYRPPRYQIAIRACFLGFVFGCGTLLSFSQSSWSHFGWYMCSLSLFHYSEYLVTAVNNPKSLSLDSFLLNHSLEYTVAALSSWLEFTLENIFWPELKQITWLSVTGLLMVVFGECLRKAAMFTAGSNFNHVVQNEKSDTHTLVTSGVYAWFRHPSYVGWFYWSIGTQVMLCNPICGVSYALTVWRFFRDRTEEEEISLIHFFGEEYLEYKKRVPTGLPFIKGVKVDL
UniProt Q58FF7, whole entry, looked up: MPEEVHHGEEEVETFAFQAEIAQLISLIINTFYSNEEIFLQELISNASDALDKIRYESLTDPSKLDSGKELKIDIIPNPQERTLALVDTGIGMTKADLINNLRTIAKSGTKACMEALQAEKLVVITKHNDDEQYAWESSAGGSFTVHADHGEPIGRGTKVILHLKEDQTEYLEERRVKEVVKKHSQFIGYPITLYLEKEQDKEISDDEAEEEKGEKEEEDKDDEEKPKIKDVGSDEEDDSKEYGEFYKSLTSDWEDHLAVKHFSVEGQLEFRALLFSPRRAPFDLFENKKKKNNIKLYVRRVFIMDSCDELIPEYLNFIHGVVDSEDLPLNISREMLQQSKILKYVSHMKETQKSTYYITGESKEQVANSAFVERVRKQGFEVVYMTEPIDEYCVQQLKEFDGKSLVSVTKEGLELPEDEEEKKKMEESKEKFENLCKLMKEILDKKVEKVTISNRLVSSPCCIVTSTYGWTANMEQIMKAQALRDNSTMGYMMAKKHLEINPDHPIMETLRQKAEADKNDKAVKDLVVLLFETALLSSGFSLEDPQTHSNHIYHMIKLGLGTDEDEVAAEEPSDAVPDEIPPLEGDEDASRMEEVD
UniProt Q53T59: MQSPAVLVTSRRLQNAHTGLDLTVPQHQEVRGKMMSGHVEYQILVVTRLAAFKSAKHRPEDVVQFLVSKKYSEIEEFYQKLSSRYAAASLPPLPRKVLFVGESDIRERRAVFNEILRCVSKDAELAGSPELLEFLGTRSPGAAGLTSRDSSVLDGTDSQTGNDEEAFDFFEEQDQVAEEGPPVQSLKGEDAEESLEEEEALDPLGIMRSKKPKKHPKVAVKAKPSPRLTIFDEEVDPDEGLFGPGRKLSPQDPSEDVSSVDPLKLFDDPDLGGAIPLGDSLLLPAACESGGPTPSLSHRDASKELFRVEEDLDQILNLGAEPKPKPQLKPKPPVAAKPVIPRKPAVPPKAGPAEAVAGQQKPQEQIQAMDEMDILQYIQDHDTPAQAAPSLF

Legend:
Experiment in all cases: log2 fold change, soluble protein after heating vs DMSO (PISA); higher = thermal stabilisation; K562 cells, 10 uM, 30 min; active = over 0.2 and 3.5 SD of the protein, either way, in both replicates (recomputed)
[1] = compound: CC1=C(C=C(C=C1)NC(=O)C2=CC(=CC=C2)C(C)(C)C#N)NC3=CC4=C(C=C3)N=CN(C4=O)C
Procedure, shortened: (§1)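 K562 cells at 2×10^6 cells/mL were treated for 30 min with 10 μM compound, and aliquots were heated for 3 min over 48°C-58°C before pooling. Extraction used PBS with 0.5% NP-40 at 4°C, and soluble protein was the supernatant after 21,000xg for 90 min, measured by TMTpro 16plex LC-MS/MS with channel sums equalised. Thermal stability values, relative to control samples and from duplicates, are log2 fold changes.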

[2] = compound: CC1=C(C=C(C=C1)NC(=O)C2=CC(=CC=C2)N(C)C)NC(=O)C3=CC=C(C=C3)O
Procedure, shortened: as §1

[3] = compound: CC1=CC=C(C=C1)SC2=C3C=C(SC3=CN=C2)C(=O)N
Procedure, shortened: as §1

[4] = compound: CC1=NC(=CC=C1)C2=C(N=C(N2)C(C)(C)C)C3=CC4=NC=CN=C4C=C3
Procedure, shortened: as §1

[5] = compound: CCCCN(Cc1ccc(C(=O)NO)cc1)C(=O)Nc1ccccc1 [Nexturastat A]
Procedure, shortened: as §1

[6] = compound: CCCS(=O)(=O)Nc1ccc(F)c(C(=O)c2c[nH]c3ncc(-c4ccc(Cl)cc4)cc23)c1F [vemurafenib]
Procedure, shortened: as §1

[7] = compound: CCCS(=O)(=O)Nc1ccc(F)c(C(=O)c2c[nH]c3ncc(Cl)cc23)c1F
Procedure, shortened: as §1

[8] = compound: CCCc1cc(C)[nH]c(=O)c1CNC(=O)c1cc(-c2ccnc(N3CCN(C)CC3)c2)cc2c1cnn2C(C)C
Procedure, shortened: as §1

[9] = compound: CCN(CC)Cc1ccc2cc(COC(=O)Nc3ccc(C(=O)NO)cc3)ccc2c1 [givinostat]
Procedure, shortened: as §1

[10] = compound: CCN(CCCOc1ccc2c(Nc3cc(CC(=O)Nc4cccc(F)c4)[nH]n3)ncnc2c1)CCOP(=O)(O)O [barasertib]
Procedure, shortened: as §1

[11] = compound: CC[C@@H]1C(=O)N(C)c2cnc(Nc3ccc(C(=O)NC4CCN(C)CC4)cc3OC)nc2N1C1CCCC1
Procedure, shortened: as §1

[12] = compound: CC[C@@H]1C(=O)N(C)c2cnc(Nc3ccc(C(=O)N[C@H]4CC[C@H](N5CCN(CC6CC6)CC5)CC4)cc3OC)nc2N1C(C)C [volasertib]
Procedure, shortened: as §1

[13] = compound: CC[C@H](C)N1C=C(C2=C(C=C(C=C21)C3=CN=C(C=C3)N4CCNCC4)C(=O)NCC5=C(C=C(NC5=O)C)C)C
Procedure, shortened: as §1

[14] = compound: CC[C@H](C)[C@@H](C(=O)N[C@@H]([C@@H](C)O)C(=O)N[C@@H](CC(C)C)C(=O)[C@]1(CO1)C)NC(=O)[C@H]([C@@H](C)CC)N(C)C(=O)C [epoxomicin]
Procedure, shortened: as §1

[15] = compound: CCn1c(C(=O)N(C2CC2)C2CC2)cc2c3c(ncn3C)c(Nc3cc(C)n(C)n3)nc21
Procedure, shortened: as §1

[16] = compound: CCn1cc(-c2ccnc3[nH]c(-c4cccc(CN(C)C)c4)cc23)c(-c2ccc(NC(=O)N(C)C)cc2)n1
Procedure, shortened: as §1

[17] = compound: CN(C)CC(=O)Nc1ccc2[nH]c(=O)c3ccccc3c2c1
Procedure, shortened: as §1

[18] = compound: CN(CCOC1=CC=C(C=C1)C[C@H]2C(=O)NC(=O)S2)C3=CC=CC=N3 (racemic) [rosiglitazone]
Procedure, shortened: as §1

[19] = compound: CN1C2=C(C3=C1C(=O)N(N=C3)CC4=CC(=CC=C4)N)SC(=C2)S(=O)C
Procedure, shortened: as §1

[20] = compound: CN1CCC(CNc2ccc3ncc(-c4cccc(OC(F)(F)F)c4)n3n2)CC1
Procedure, shortened: as §1

| Target | log2 fold change [1] | log2 fold change [2] | log2 fold change [3] | log2 fold change [4] | log2 fold change [5] | log2 fold change [6] | log2 fold change [7] | log2 fold change [8] | log2 fold change [9] | log2 fold change [10] | log2 fold change [11] | log2 fold change [12] | log2 fold change [13] | log2 fold change [14] | log2 fold change [15] | log2 fold change [16] | log2 fold change [17] | log2 fold change [18] | log2 fold change [19] | log2 fold change [20] |
| --- | --- | --- | --- | --- | --- | --- | --- | --- | --- | --- | --- | --- | --- | --- | --- | --- | --- | --- | --- | --- |
| HK1 isoform 2 (UniProt P19367) | inactive: -0.035 | inactive: -0.003 | inactive: 0.015 | inactive: 0.032 | inactive: -0.095 | inactive: -0.022 | inactive: -0.007 | inactive: -0.03 | inactive: -0.005 | inactive: 0.003 | inactive: -0.02 | inactive: -0.252 | inactive: -0.012 | inactive: 0.015 | inactive: -0.045 | inactive: 0 | inactive: -0.018 | inactive: 0.02 | inactive: -0.046 | inactive: -0.022 |
| HNRNPL (UniProt P14866) | inactive: 0.093 | inactive: -0.065 | inactive: -0.055 | inactive: 0.253 | inactive: 0.359 | – | inactive: 0.074 | inactive: -0.126 | inactive: 0.248 | inactive: -0.029 | inactive: 0.025 | inactive: -0.075 | – | inactive: -0.059 | inactive: -0.196 | inactive: 0.148 | – | inactive: 0.013 | inactive: 0.327 | inactive: 0.031 |
| HNRNPA0 (UniProt Q13151) | inactive: 0.095 | – | inactive: -0.069 | inactive: -0.099 | inactive: 0.101 | inactive: -0.117 | inactive: 0.062 | inactive: 0.098 | inactive: 0.223 | inactive: -0.052 | inactive: 0.051 | inactive: -0.095 | inactive: 0.168 | inactive: -0.103 | inactive: -0.033 | inactive: 0.134 | inactive: -0.05 | inactive: -0.039 | inactive: 0.249 | inactive: 0.099 |
| HNRNPUL1 (UniProt M0R247) | inactive: -0.059 | – | inactive: -0.148 | inactive: -0.075 | – | – | inactive: -0.15 | – | inactive: 0.001 | – | inactive: -0.072 | inactive: 0.16 | inactive: -0.101 | – | – | – | – | – | inactive: 0.21 | – |
| HMGN5 (UniProt Q5JSK9) | inactive: -0.07 | inactive: -0.023 | inactive: -0.137 | – | inactive: -0.066 | inactive: -0.185 | inactive: -0.346 | inactive: -0.518 | inactive: 0.058 | inactive: 0.03 | inactive: 0.194 | inactive: 0.134 | – | inactive: -0.161 | inactive: -0.03 | inactive: 0.092 | inactive: -0.059 | inactive: 0.036 | inactive: 0.072 | inactive: -0.172 |
| HMGCR isoform 3 (UniProt P04035) | inactive: 0.131 | inactive: -0.046 | inactive: 0.061 | inactive: -0.115 | inactive: 0.074 | inactive: -0.002 | inactive: -0.04 | inactive: -0.043 | inactive: 0.034 | inactive: 0.027 | inactive: -0.007 | inactive: -0.019 | inactive: -0.07 | active: 0.356 | – | inactive: 0.015 | inactive: -0.023 | – | inactive: -0.009 | inactive: 0.272 |
| HSF1 (UniProt Q00613) | inactive: -0.031 | – | inactive: -0.002 | – | inactive: 0.003 | inactive: 0.169 | inactive: 0.222 | inactive: -0.399 | inactive: 0.163 | inactive: 0.088 | inactive: -0.155 | inactive: -0.324 | inactive: 0.056 | inactive: -0.023 | inactive: -0.139 | inactive: -0.222 | inactive: 0.221 | inactive: 0.156 | inactive: 0.01 | inactive: -0.322 |
| ICMT (UniProt O60725) | inactive: -0.048 | inactive: -0.085 | inactive: -0.079 | inactive: 0.072 | inactive: -0.204 | inactive: 0 | inactive: -0.103 | inactive: 0.064 | inactive: -0.037 | inactive: 0.022 | inactive: 0.202 | inactive: 0.138 | inactive: -0.027 | inactive: -0.029 | – | – | inactive: 0.061 | – | inactive: -0.051 | – |
| HSP90AB3P (UniProt Q58FF7) | inactive: -0.008 | inactive: 0.021 | inactive: 0.134 | inactive: 0.036 | – | – | inactive: 0.075 | inactive: 0.128 | inactive: 0.069 | inactive: 0.03 | inactive: -0.174 | inactive: -0.158 | inactive: 0.071 | – | inactive: 0.086 | inactive: -0.005 | – | inactive: 0.097 | inactive: -0.055 | inactive: -0.13 |
| HS1BP3 (UniProt Q53T59) | inactive: 0.023 | inactive: -0.045 | inactive: -0.109 | inactive: -0.046 | inactive: 0.052 | inactive: 0.132 | inactive: 0.021 | – | inactive: 0.111 | inactive: 0.047 | inactive: -0.038 | active: -0.343 | inactive: 0.073 | inactive: 0.056 | – | – | inactive: 0.012 | – | inactive: -0.041 | – |
